# Results taken from the supplement of paper PMC8728848.
# Some of the results follow.
# B1: MIC2 (Toxoplasma gondii), S8F9G8 (protein)
# chain: MRLQREAVFGLMFACGMWMWPSEVAGGGWSIVDALRKRYDTSRGGDANGVDTSGVEDVIQSESAIGAAEGCTNQLDICFLIDSSGSIGIQNFRLVKQFLHTFLMVLPIGPEEVNNAVVTYSTDVHLQWDLQSPNAVDKQLAAHAVLDMPYKKGSTNTSDGLKACKQILFTGSRPGREHVPKLVIGMTDGESDSDFRTVRAAKEIRELGGIVTVLAVGHYVKHSECRSMCGCSGTSDDDSPCPLYLRADWGQLATAIKPMLKEVCKTLPQDAICSDWSAWSPCSVSCGDGSQIRTRTEVSAPQPGTPTCPDCPAPMGRTCVEQGGLEEIRECSAGVCAVDAGCGVWGEWSAWSASCGNATRKRERTRYNDPPPQGAGRRCENQDPPVLQEQTEEATLAPCITIPPTPPEWAAWSDCTVTCGGGNRHRVRNALPPGLGSQNGESDESLVSKLWPGTDLRQEEACNTSPCPINATCGQFEEWSTCSVSCGGGLKTRSRNPWNEDQQHGGLSCEQQHPGGRTETITCNPQACPVDERPGEWAEWGECSVTCGDGVRERRRGKSLVEAKFGGRTIDQQNEALPEDLKIKNVEYEPCSYPACGASCTYVWSDWNKCVCPMGYQARHAAVKFDYRNKPCDLPTFETKACSCGETNPVPSEGTTPGAPGATGPEQPNQRPLPEGSDENETPTNEEGEQSKKESGSGIAGAIAGGVIGGLILLGAAGGASYHYYLSSSVGSPSAEIEYEADDGATKVVMEEEKETLVPVDDDSDMWME
# How the values were obtained:
# Test in all cases: glycan array binding signal (z-score within array); higher = stronger binding
# Settings in all cases: glycan notation: IUPAC condensed, linker removed
# [1] = biological target: Neu5Ac(a2-3)Gal(b1-3)GlcNAc(b1-3)Gal(b1-3)GlcNAc
# Procedure, shortened: (§1)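 Columns mapping to the same glycan were averaged after glycan names were converted to IUPAC-condensed notation. The data come from 3228 arrays in the Consortium for Functional Glycomics database, limited to those with an available protein sequence. Binding is reported as a within-array Z-score averaged across arrays of one protein sequence and across linkers.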
# [2] = biological target: Neu5Ac(a2-3)Gal(b1-3)GlcNAc(b1-3)Gal(b1-4)GlcNAc
# Procedure, shortened: as §1
# [3] = biological target: Neu5Ac(a2-3)Gal(b1-3)GlcNAc(b1-3)GalNAc
# Procedure, shortened: as §1
# [4] = biological target: Neu5Ac(a2-3)Gal(b1-3)GlcNAc6S
# Procedure, shortened: as §1
# [5] = biological target: Neu5Ac(a2-3)Gal(b1-3)[Fuc(a1-4)]GlcNAc
# Procedure, shortened: as §1
# [6] = biological target: Neu5Ac(a2-3)Gal(b1-3)[Fuc(a1-4)]GlcNAc(b1-3)Gal(b1-3)[Fuc(a1-4)]GlcNAc
# Procedure, shortened: as §1
# [7] = biological target: Neu5Ac(a2-3)Gal(b1-3)[Fuc(a1-4)]GlcNAc(b1-3)Gal(b1-4)[Fuc(a1-3)]GlcNAc
# Procedure, shortened: as §1
# [8] = biological target: Neu5Ac(a2-3)Gal(b1-3)[Neu5Ac(a2-3)Gal(b1-4)]GlcNAc
# Procedure, shortened: as §1
# [9] = biological target: Neu5Ac(a2-3)Gal(b1-3)[Neu5Ac(a2-6)]GalNAc
# Procedure, shortened: as §1
# [10] = biological target: Neu5Ac(a2-3)Gal(b1-4)Glc
# Procedure, shortened: as §1
# [11] = biological target: Neu5Ac(a2-3)Gal(b1-4)GlcNAc
# Procedure, shortened: as §1
# [12] = biological target: Neu5Ac(a2-3)Gal(b1-4)GlcNAc(b1-2)Man(a1-3)[GlcNAc(b1-2)Man(b1-4)GlcNAc(b1-2)Man(a1-6)]Man(b1-4)GlcNAc(b1-4)GlcNAc
# Procedure, shortened: as §1
# [13] = biological target: Neu5Ac(a2-3)Gal(b1-4)GlcNAc(b1-2)Man(a1-3)[Neu5Ac(a2-6)Gal(b1-4)GlcNAc(b1-2)Man(a1-6)]Man(b1-4)GlcNAc(b1-4)GlcNAc
# Procedure, shortened: as §1
# [14] = biological target: Neu5Ac(a2-3)Gal(b1-4)GlcNAc(b1-3)Gal(b1-3)GlcNAc
# Procedure, shortened: as §1
# [15] = biological target: Neu5Ac(a2-3)Gal(b1-4)GlcNAc(b1-3)Gal(b1-4)GlcNAc
# Procedure, shortened: as §1
# [16] = biological target: Neu5Ac(a2-3)Gal(b1-4)GlcNAc(b1-3)Gal(b1-4)GlcNAc(b1-3)Gal(b1-4)GlcNAc
# Procedure, shortened: as §1
# [17] = biological target: Neu5Ac(a2-3)Gal(b1-4)GlcNAc(b1-3)Gal(b1-4)[Fuc(a1-3)]GlcNAc
# Procedure, shortened: as §1
# [18] = biological target: Neu5Ac(a2-3)Gal(b1-4)GlcNAc(b1-3)GalNAc
# Procedure, shortened: as §1
# [19] = biological target: Neu5Ac(a2-3)Gal(b1-4)GlcNAc(b1-6)[Gal(b1-3)]GalNAc
# Procedure, shortened: as §1
# [20] = biological target: Neu5Ac(a2-3)Gal(b1-4)GlcNAc(b1-6)[Neu5Ac(a2-3)Gal(b1-3)]GalNAc
# Procedure, shortened: as §1
# [21] = biological target: Neu5Ac(a2-3)Gal(b1-4)GlcNAc6S
# Procedure, shortened: as §1
# [22] = biological target: Neu5Ac(a2-3)Gal(b1-4)[Fuc(a1-3)]GlcNAc
# Procedure, shortened: as §1
# [23] = biological target: Neu5Ac(a2-3)Gal(b1-4)[Fuc(a1-3)]GlcNAc(b1-3)Gal
# Procedure, shortened: as §1
# [24] = biological target: Neu5Ac(a2-3)Gal(b1-4)[Fuc(a1-3)]GlcNAc(b1-3)Gal(b1-4)GlcNAc
# Procedure, shortened: as §1
# [25] = biological target: Neu5Ac(a2-3)Gal(b1-4)[Fuc(a1-3)]GlcNAc(b1-3)Gal(b1-4)[Fuc(a1-3)]GlcNAc(b1-3)Gal(b1-4)[Fuc(a1-3)]GlcNAc
# Procedure, shortened: as §1
# [26] = biological target: Neu5Ac(a2-3)Gal(b1-4)[Fuc(a1-3)]GlcNAc(b1-3)GalNAc
# Procedure, shortened: as §1
# [27] = biological target: Neu5Ac(a2-3)Gal(b1-4)[Fuc(a1-3)]GlcNAc(b1-6)[Gal(b1-3)]GalNAc
# Procedure, shortened: as §1
# [28] = biological target: Neu5Ac(a2-3)Gal(b1-4)[Fuc(a1-3)]GlcNAc(b1-6)[Neu5Ac(a2-3)Gal(b1-3)]GalNAc
# Procedure, shortened: as §1
# [29] = biological target: Neu5Ac(a2-3)Gal(b1-4)[Fuc(a1-3)]GlcNAc6S
# Procedure, shortened: as §1
# [30] = biological target: Neu5Ac(a2-3)Gal6S(b1-4)GlcNAc
# Procedure, shortened: as §1
binder,measurement,setting,value
B1,glycan array binding signal (z-score),[1],-0.331
same,glycan array binding signal (z-score),[2],-0.031
same,glycan array binding signal (z-score),[3],-0.407
same,glycan array binding signal (z-score),[4],0.518
same,glycan array binding signal (z-score),[5],-1.11
same,glycan array binding signal (z-score),[6],0.89
same,glycan array binding signal (z-score),[7],-0.271
same,glycan array binding signal (z-score),[8],-1.06
same,glycan array binding signal (z-score),[9],0.368
same,glycan array binding signal (z-score),[10],-0.601
same,glycan array binding signal (z-score),[11],0.221
same,glycan array binding signal (z-score),[12],-0.575
same,glycan array binding signal (z-score),[13],-0.088
same,glycan array binding signal (z-score),[14],-0.156
same,glycan array binding signal (z-score),[15],-0.177
same,glycan array binding signal (z-score),[16],-0.616
same,glycan array binding signal (z-score),[17],0.678
same,glycan array binding signal (z-score),[18],-0.65
same,glycan array binding signal (z-score),[19],-0.459
same,glycan array binding signal (z-score),[20],0.452
same,glycan array binding signal (z-score),[21],0.052
same,glycan array binding signal (z-score),[22],-0.787
same,glycan array binding signal (z-score),[23],-0.967
same,glycan array binding signal (z-score),[24],1.5
same,glycan array binding signal (z-score),[25],-0.934
same,glycan array binding signal (z-score),[26],2.18
same,glycan array binding signal (z-score),[27],3.24
same,glycan array binding signal (z-score),[28],1.33
same,glycan array binding signal (z-score),[29],-0.949
same,glycan array binding signal (z-score),[30],0.368

# Some of the entries so far, with tabs:
binder	measurement	setting	value
B1	glycan array binding signal (z-score)	[4]	0.518
same	glycan array binding signal (z-score)	[5]	-1.11
